No constants are given. Whether binding was seen depends on the method and setting. Binding seen in cells or lysates may run through a third protein. A result given as binding can be weak or reduced; the word gives no strength.
Experiments:
[1] = target: MUC1 C-terminal subunit (MUC1-C) (human (endogenous in YCCEL1, SNU-719 and AGS)); experiment: co-IP; lysates of EBV-negative AGS cells transfected to express EBNA1 precipitated with anti-MUC1-C or a control IgG; precipitates immunoblotted
[2] = target: MUC1 C-terminal subunit (MUC1-C) (human (endogenous in YCCEL1, SNU-719 and AGS)); experiment: co-IP; YCCEL1 and SNU-719 cell lysates precipitated with anti-MUC1-C or a control IgG (Pierce Classic Magnetic Co-IP Kit); precipitates immunoblotted

B1: PLOD1 lysine hydroxylase (enzyme, UniProt Q02809 19-727)
chain: KGDAKPEDNLLVLTVATKETEGFRRFKRSAQFFNYKIQALGLGEDWNVEKGTSAGGGQKVRLLKKALEKHADKEDLVILFADSYDVLFASGPRELLKKFRQARSQVVFSAEELIYPDRRLETKYPVVSDGKRFLGSGGFIGYAPNLSKLVAEWEGQDSDSDQLFYTKIFLDPEKREQINITLDHRCRIFQNLDGALDEVVLKFEMGHVRARNLAYDTLPVLIHGNGPTKLQLNYLGNYIPRFWTFETGCTVCDEGLRSLKGIGDEALPTVLVGVFIEQPTPFVSLFFQRLLRLHYPQKHMRLFIHNHEQHHKAQVEEFLAQHGSEYQSVKLVGPEVRMANADARNMGADLCRQDRSCTYYFSVDADVALTEPNSLRLLIQQNKNVIAPLMTRHGRLWSNFWGALSADGYYARSEDYVDIVQGRRVGVWNVPYISNIYLIKGSALRGELQSSDLFHHSKLDPDMAFCANIRQQDVFMFLTNRHTLGHLLSLDSYRTTHLHNDLWEVFSNPEDWKEKYIHQNYTKALAGKLVETPCPDVYWFPIFTEVACDELVEEMEHFGQWSLGNNKDNRIQGGYENVPTIDIHMNQIGFEREWHKFLLEYIAPMTEKLYPGYYTRAQFDLAFVVRYKPDEQPSLMPHHDASTFTINIALNRVGVDYEGGGCRFLRYNCSIRAPRKGWTLMHPGRLTHYHEGLPTTRGTRYIAVSFVDP
binding [1]: binds
binding [2]: binds

— publication PMC12436189
